Test results from PMC9644602.
Results are given in words; binding and its absence hold for the method and conditions named. For some assays here: In cells and extracts the contact can be indirect. Some results given as binding are weak or reduced against the parent protein; the word gives no strength. For some assays here: Sequences can lack the tags named with a protein.

The chains behind the UniProt entries cited, without tags or fusion partners.
UniProt P09874: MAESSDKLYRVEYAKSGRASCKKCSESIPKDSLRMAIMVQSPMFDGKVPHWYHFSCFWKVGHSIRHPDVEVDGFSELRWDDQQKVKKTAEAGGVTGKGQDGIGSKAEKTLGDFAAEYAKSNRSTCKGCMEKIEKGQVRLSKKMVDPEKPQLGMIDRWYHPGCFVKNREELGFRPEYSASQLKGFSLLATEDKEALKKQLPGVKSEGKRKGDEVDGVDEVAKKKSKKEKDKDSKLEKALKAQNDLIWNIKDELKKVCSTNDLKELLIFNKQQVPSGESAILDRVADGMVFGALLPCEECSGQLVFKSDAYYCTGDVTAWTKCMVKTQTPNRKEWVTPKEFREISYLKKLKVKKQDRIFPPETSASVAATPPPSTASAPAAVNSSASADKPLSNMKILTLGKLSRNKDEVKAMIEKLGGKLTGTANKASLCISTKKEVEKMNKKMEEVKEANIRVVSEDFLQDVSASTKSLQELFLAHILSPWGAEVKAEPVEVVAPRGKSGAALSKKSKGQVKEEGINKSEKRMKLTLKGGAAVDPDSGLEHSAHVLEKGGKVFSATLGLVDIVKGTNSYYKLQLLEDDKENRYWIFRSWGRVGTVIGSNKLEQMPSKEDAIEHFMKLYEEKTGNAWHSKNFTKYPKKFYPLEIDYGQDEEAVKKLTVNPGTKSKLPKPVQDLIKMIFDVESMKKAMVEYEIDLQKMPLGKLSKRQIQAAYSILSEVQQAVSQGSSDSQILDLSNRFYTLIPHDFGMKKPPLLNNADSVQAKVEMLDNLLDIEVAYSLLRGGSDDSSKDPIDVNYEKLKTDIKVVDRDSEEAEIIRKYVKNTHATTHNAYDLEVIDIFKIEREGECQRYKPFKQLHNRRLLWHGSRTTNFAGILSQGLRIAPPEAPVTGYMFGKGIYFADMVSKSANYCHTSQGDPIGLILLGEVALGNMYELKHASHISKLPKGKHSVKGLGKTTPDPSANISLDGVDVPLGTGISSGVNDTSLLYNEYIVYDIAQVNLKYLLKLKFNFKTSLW
UniProt P11103: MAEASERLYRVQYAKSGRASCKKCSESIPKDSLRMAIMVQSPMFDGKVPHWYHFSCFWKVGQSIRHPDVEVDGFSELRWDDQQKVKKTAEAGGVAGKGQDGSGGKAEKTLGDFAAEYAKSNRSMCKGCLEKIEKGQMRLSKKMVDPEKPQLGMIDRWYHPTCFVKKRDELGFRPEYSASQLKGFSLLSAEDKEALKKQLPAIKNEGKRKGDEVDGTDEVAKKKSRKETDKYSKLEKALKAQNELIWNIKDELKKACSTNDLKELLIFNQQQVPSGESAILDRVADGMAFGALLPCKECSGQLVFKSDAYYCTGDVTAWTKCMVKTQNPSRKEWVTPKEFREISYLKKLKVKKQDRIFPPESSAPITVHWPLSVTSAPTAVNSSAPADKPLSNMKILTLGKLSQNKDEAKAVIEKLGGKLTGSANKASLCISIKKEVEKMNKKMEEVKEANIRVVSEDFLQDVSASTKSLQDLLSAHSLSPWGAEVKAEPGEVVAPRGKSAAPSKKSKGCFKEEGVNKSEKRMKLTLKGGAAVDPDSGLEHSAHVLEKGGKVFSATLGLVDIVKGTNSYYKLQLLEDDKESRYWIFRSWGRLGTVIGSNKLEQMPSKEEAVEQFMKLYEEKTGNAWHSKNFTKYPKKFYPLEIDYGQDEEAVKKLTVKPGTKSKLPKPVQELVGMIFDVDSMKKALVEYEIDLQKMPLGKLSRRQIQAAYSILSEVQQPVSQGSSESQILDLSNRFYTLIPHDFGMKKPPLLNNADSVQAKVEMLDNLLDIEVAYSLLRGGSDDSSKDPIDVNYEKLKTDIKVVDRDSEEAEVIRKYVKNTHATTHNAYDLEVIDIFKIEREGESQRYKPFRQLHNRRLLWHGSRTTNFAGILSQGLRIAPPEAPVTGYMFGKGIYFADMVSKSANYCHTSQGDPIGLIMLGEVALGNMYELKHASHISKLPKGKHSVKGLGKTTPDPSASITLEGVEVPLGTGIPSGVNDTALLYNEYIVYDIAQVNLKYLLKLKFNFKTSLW

Experiments:
[1] = biological target: T1, Recombinant human STAT6 (polyHis-tagged) (human) (UniProt P42226); experiment: pull-down; Ni-NTA pulldown of polyHis-STAT6 from the cell-free PARylation reaction (recombinant PARP-1, NAD+, 30 min at 37 °C), with or without sheared DNA (DSBs); immunoblot; both purified
T1 sequence: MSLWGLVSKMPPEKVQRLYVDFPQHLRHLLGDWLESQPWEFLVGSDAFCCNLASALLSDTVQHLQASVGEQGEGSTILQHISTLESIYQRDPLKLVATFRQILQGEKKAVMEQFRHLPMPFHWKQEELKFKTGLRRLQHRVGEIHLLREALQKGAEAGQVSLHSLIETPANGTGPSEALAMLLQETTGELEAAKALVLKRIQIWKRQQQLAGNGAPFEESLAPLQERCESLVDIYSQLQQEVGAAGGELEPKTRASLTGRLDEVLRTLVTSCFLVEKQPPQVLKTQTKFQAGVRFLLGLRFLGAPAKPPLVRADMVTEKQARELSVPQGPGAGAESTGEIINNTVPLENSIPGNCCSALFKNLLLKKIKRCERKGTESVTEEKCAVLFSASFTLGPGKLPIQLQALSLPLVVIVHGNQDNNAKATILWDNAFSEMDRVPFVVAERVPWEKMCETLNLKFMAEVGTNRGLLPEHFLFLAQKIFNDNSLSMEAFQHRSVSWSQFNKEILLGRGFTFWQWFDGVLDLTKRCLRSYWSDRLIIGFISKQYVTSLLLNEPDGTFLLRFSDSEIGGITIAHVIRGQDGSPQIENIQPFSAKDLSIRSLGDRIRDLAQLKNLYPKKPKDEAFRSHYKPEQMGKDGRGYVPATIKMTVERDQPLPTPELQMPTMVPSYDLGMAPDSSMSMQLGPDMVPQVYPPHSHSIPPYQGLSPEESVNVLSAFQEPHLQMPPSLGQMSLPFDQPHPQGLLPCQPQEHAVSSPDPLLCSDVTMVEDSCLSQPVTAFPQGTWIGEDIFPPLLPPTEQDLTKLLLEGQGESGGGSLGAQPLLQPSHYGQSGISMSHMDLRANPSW

[2] = biological target: T2, STAT6 (endogenous, mouse splenocytes) (mouse (endogenous in splenocytes)) (UniProt P52633); experiment: co-IP; IP with antibodies to STAT6 from protein extracts of mouse splenocytes, untreated or treated with IL-4 for the indicated times; immunoblot for PARP-1; interaction seen around 8 to 12 h after IL-4
T2 sequence: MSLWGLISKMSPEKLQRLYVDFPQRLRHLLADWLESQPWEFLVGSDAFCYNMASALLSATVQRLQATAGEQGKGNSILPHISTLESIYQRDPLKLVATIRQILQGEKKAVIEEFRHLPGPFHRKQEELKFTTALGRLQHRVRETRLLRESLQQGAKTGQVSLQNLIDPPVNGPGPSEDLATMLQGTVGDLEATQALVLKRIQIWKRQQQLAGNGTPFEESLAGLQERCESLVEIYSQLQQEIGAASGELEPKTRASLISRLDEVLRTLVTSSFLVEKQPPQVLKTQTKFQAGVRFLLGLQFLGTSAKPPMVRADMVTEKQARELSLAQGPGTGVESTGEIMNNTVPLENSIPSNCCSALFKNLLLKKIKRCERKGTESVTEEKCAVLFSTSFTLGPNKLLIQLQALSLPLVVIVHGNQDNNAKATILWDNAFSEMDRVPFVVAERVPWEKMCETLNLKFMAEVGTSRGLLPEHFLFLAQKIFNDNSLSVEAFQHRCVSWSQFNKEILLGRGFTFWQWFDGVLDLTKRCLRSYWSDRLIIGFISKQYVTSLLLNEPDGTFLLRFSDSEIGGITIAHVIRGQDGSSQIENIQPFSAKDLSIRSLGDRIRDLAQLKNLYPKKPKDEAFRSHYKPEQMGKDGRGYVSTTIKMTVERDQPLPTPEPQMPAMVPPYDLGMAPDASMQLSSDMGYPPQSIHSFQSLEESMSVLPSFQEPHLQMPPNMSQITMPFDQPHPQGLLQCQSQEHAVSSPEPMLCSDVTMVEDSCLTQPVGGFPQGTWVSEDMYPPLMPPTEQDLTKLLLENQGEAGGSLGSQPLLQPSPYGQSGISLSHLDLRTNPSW

binding [1]	binding [2]	Substance
binds		Recombinant human PARP-1 (from UniProt P09874 1-1014) (enzyme)
	binds	PARP-1 (endogenous, mouse splenocytes) (from UniProt P11103 1-1013) (enzyme)
